Paper PMC7819943, “Rice protein-binding microarrays: a tool to detect cis-acting elements near promoter regions in rice”
This is one part of the list.

By UniProt entry, the sequences of proteins in these tests, tags left out.
UniProt Q0JBA9, entry or part of it: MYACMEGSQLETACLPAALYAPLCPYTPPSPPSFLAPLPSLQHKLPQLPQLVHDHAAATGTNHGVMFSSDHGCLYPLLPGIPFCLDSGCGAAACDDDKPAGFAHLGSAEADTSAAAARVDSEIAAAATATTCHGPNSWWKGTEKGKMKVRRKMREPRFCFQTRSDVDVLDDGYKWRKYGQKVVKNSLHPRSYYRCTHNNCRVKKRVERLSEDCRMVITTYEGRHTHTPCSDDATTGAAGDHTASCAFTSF

Target: OsWRKY34 (Oryza sativa, UniProt Q0JBA9 1-250)
Assay: protein-binding microarray (RPBM); PBS, 2% BSA, 51.3 ng/ul salmon testes DNA, 50 uM zinc acetate, 200 nM TF, 25 C, 1 h; high values mean tight binding
Conditions: protein: recombinant; tags: N-terminal polyhistidine and DsRed monomer fusion (pET32a); label: CyDye5-dUTP incorporated in the synthesized complementary strand; 3' TTTTT single-stranded linker to array surface; dsDNA, one strand shown
Procedure, shortened: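 An Axon 4000B scanner gave the binding signal as per-feature fluorescence intensity in arbitrary units. This followed washing of a custom Agilent array that had been incubated for 1 h at 25 °C with 200 nM protein in PBS, 2% BSA, salmon testes DNA and 50 µM zinc acetate. The proteins were transcription factors fused at the N-terminus to polyhistidine and DsRed, expressed in E. coli BL21-CodonPlus and purified on Ni–NTA.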

Question: Which binding signal does the source give for “ATCTTTTTTTTTCACCTTCTTTGTCTTCTTCCTTCCCAAACGGAGTCACCTAGTGCAG” here?
Answer: Its binding signal is 10200 fluorescence intensity (a.u.).

Question: With “TATAATATTTGTTTCAGCCACCTAGCAACATTGTGGAACTCGGAGTCACCTAGTGCAG” as the sequence, how does the binding signal read?
Answer: Its binding signal is 9500 fluorescence intensity (a.u.).

Question: With “ATAACATCATGTTCTTTCACTGTGTTTTTTTTTTGCAAATCGGAGTCACCTAGTGCAG” as the sequence, how does the binding signal read?
Answer: Its binding signal is 8260 fluorescence intensity (a.u.).

Question: “TGCACTCCGACTCCCGATTTTTGGTTTCGATCTGGTCGCACGGAGTCACCTAGTGCAG” was tested. Which binding signal did it give?
Answer: Its binding signal is 10700 fluorescence intensity (a.u.).

Question: “GATCCAACCCGTGCCCGCCCGCCTCGACATGCGCGTCCGACGGAGTCACCTAGTGCAG” was tested. Which binding signal did it give?
Answer: Its binding signal is 8970 fluorescence intensity (a.u.).

Question: With “TAAGAAGAGGATGGGGTCATGGGGTGTTAGTTAATTGCATCGGAGTCACCTAGTGCAG” as the sequence, how does the binding signal read?
Answer: Its binding signal is 9690 fluorescence intensity (a.u.).

Question: With “CTTTTCTTTTCAATTTTTTGAGCGTTGACCATACTTAAATCGGAGTCACCTAGTGCAG” as the sequence, how does the binding signal read?
Answer: The binding signal was 14800 fluorescence intensity (a.u.).

Question: With “AGGTGTTCGTTTTTTCTTTCTTTTTTTTGAATAACAGAATCGGAGTCACCTAGTGCAG” as the sequence, how does the binding signal read?
Answer: Its binding signal is 10700 fluorescence intensity (a.u.).

Question: How did the binding signal turn out when “GAGAGGGGCTGTATATGTACTAGTAGTAGAGGTTAGCGTTCGGAGTCACCTAGTGCAG” was run?
Answer: Its binding signal is 10600 fluorescence intensity (a.u.).

Question: With “ACTGGATTATTAGTTGTTTGTAAGCTGTACGTTAGCCATACGGAGTCACCTAGTGCAG” as the sequence, how does the binding signal read?
Answer: Its binding signal is 10500 fluorescence intensity (a.u.).

Question: “ATGGTAGTGCCTCTCATCCATACAACACGGCTTCCTCATGCGGAGTCACCTAGTGCAG” was tested. Which binding signal did it give?
Answer: The binding signal was 8150 fluorescence intensity (a.u.).

Question: How did the binding signal turn out when “CCAATTTCTCTCTCCACATCTCTCTGTGTTTCTTTTATTTCGGAGTCACCTAGTGCAG” was run?
Answer: The binding signal was 9680 fluorescence intensity (a.u.).

Question: For “GACCTAACTCCGTCCACTTCCACACTACTACTACTGTCTACGGAGTCACCTAGTGCAG”, which binding signal is on record?
Answer: Its binding signal is 10200 fluorescence intensity (a.u.).

Question: With “TTCGTGGTCTGGTTGGCAACAGTTTCCTGTCCGTTGCTTTCGGAGTCACCTAGTGCAG” as the sequence, how does the binding signal read?
Answer: The binding signal was 8540 fluorescence intensity (a.u.).

Question: “CCCTCACTTTACATTTTTTTTCTCTTATAATTTATTTTTTCGGAGTCACCTAGTGCAG” was tested. Which binding signal did it give?
Answer: Its binding signal is 13300 fluorescence intensity (a.u.).

Question: With “TGGTTACATTCTAAATCAAGAGCCTCATCTTTTCGCTTATCGGAGTCACCTAGTGCAG” as the sequence, how does the binding signal read?
Answer: The binding signal was 8440 fluorescence intensity (a.u.).

Question: How did the binding signal turn out when “ACTATTGGTTCCGTTTGTGAACCTGGCAATGTTTTGTAATCGGAGTCACCTAGTGCAG” was run?
Answer: The binding signal was 8680 fluorescence intensity (a.u.).

Question: With “CATTGGGCTGGGCTAGCCTTTGTTGGGCCGTTTTAAATCACGGAGTCACCTAGTGCAG” as the sequence, how does the binding signal read?
Answer: The binding signal was 8270 fluorescence intensity (a.u.).

Question: With “ACTTCAGATGTTTCTTGTTCCTACACTTCGCTGCTTCAGTCGGAGTCACCTAGTGCAG” as the sequence, how does the binding signal read?
Answer: Its binding signal is 11800 fluorescence intensity (a.u.).

Question: Which binding signal does the source give for “GGGTCTCATAGTGTTTGTTATTTTTTTTGGATCGAACTACCGGAGTCACCTAGTGCAG” here?
Answer: The binding signal was 8380 fluorescence intensity (a.u.).

Question: “CCGCCTGGTCGCCACCACCGCTCGCAACCGCCTGGCCGTCCGGAGTCACCTAGTGCAG” was tested. Which binding signal did it give?
Answer: Its binding signal is 10800 fluorescence intensity (a.u.).

Question: How did the binding signal turn out when “AGGTATATTCTTATAAGTAATTTTTATTCCACAAAATTTTCGGAGTCACCTAGTGCAG” was run?
Answer: Its binding signal is 8510 fluorescence intensity (a.u.).

Question: “GTTATTTATCCGGCTACGAGCCAATGCACGTAAACAATCTCGGAGTCACCTAGTGCAG” was tested. Which binding signal did it give?
Answer: Its binding signal is 8260 fluorescence intensity (a.u.).

Question: With “GTCACGCACCTACTCCGCTACTGCTTGCGACTCGCGAGACCGGAGTCACCTAGTGCAG” as the sequence, how does the binding signal read?
Answer: The binding signal was 8650 fluorescence intensity (a.u.).

Question: Which binding signal does the source give for “GAAGAGGCACGCACCACGAAGTCGCCACCTCGATTTTTCCCGGAGTCACCTAGTGCAG” here?
Answer: The binding signal was 9140 fluorescence intensity (a.u.).

Question: “CCAGCAGTAGCCAATCCCACTGCACGTCCGCACGCAGCCACGGAGTCACCTAGTGCAG” was tested. Which binding signal did it give?
Answer: The binding signal was 8390 fluorescence intensity (a.u.).

Question: “TTGTGCTCTCCTTTTGTCAGTTCCTGAGGCGCTCTCTCCTCGGAGTCACCTAGTGCAG” was tested. Which binding signal did it give?
Answer: The binding signal was 8930 fluorescence intensity (a.u.).

Question: With “TAAAATAGCTTTCACCCACGGGCGGGACATTTTTTCTAAGCGGAGTCACCTAGTGCAG” as the sequence, how does the binding signal read?
Answer: Its binding signal is 10600 fluorescence intensity (a.u.).

Question: Which binding signal does the source give for “CCGCTCCGCCCAGCACCCGCCGACCGCTGCCGCTCTCGCACGGAGTCACCTAGTGCAG” here?
Answer: Its binding signal is 11400 fluorescence intensity (a.u.).

Question: How did the binding signal turn out when “GGAGGTCGGTCTCGATCGCCATTGATGGCCACTCGTTTCCCGGAGTCACCTAGTGCAG” was run?
Answer: Its binding signal is 8140 fluorescence intensity (a.u.).

Question: How did the binding signal turn out when “CTTATTTGCACTGGTTTTGAGAGTTGAGGGACACGTCATACGGAGTCACCTAGTGCAG” was run?
Answer: Its binding signal is 8280 fluorescence intensity (a.u.).

Question: Which binding signal does the source give for “AAACGCCAACGCCATACTCCACCTGACCTCACACTCGCACCGGAGTCACCTAGTGCAG” here?
Answer: The binding signal was 9220 fluorescence intensity (a.u.).

Question: For “GCCTTCTGGAGTCGATTCACTAATCCGTCCCTTTTGAATACGGAGTCACCTAGTGCAG”, which binding signal is on record?
Answer: Its binding signal is 8270 fluorescence intensity (a.u.).

Question: For “CAAGATTGTGACTCTGACCAGTAACACCGGCACACTTGCACGGAGTCACCTAGTGCAG”, which binding signal is on record?
Answer: The binding signal was 8530 fluorescence intensity (a.u.).

Question: Which binding signal does the source give for “CTCTCCATCCGCTCGCGGCTCGCGCTCGCCCATCCAATCCCGGAGTCACCTAGTGCAG” here?
Answer: Its binding signal is 10600 fluorescence intensity (a.u.).

Question: “TTCTTGGCCGGTCGAGGTGGTGGTGGTGGTGATAAACGGTCGGAGTCACCTAGTGCAG” was tested. Which binding signal did it give?
Answer: Its binding signal is 8650 fluorescence intensity (a.u.).

Question: Which binding signal does the source give for “GACTTTTTTCTGACACTTATTTTTGCCTTTCTATATGTTCCGGAGTCACCTAGTGCAG” here?
Answer: Its binding signal is 9200 fluorescence intensity (a.u.).

Question: How did the binding signal turn out when “GGGGATTAATGGATTATAATGTGTCTTATAACTAAAAGGACGGAGTCACCTAGTGCAG” was run?
Answer: Its binding signal is 8840 fluorescence intensity (a.u.).

Question: With “GTGGCAAACTTTTATATGGTGGTCTGTGACTTTGTGTGCTCGGAGTCACCTAGTGCAG” as the sequence, how does the binding signal read?
Answer: The binding signal was 8670 fluorescence intensity (a.u.).

Question: How did the binding signal turn out when “AGGATAATTCAAATGGTTTTGGGCTTATTTTTTTTTTTTACGGAGTCACCTAGTGCAG” was run?
Answer: The binding signal was 11000 fluorescence intensity (a.u.).

Question: For “AGGGGAGATAGGAAAATTGGATTCGGTGGGTTGAGGCAGTCGGAGTCACCTAGTGCAG”, which binding signal is on record?
Answer: The binding signal was 8190 fluorescence intensity (a.u.).

Question: For “AACCCTTTAATTTGTTCTTTGCTTCTTTAATCGTTGTTGACGGAGTCACCTAGTGCAG”, which binding signal is on record?
Answer: The binding signal was 13000 fluorescence intensity (a.u.).

Question: For “GCTCTATGTGCTGTCCATCTGCCTTTTATTAATTAGCATTCGGAGTCACCTAGTGCAG”, which binding signal is on record?
Answer: Its binding signal is 12700 fluorescence intensity (a.u.).

Question: How did the binding signal turn out when “TATTGGTTAGCTTATTTTGCTTAAATGGCTGATCAGCCAACGGAGTCACCTAGTGCAG” was run?
Answer: Its binding signal is 8900 fluorescence intensity (a.u.).

Question: Which binding signal does the source give for “TTGTTGGCAAGTTTCTTCCCTTGTCTCTCTCTTGTGAGACCGGAGTCACCTAGTGCAG” here?
Answer: The binding signal was 8700 fluorescence intensity (a.u.).

Question: How did the binding signal turn out when “TCCTACCAGCTTCTTCGGCTCTTCCCATAAACTGCAGAGTCGGAGTCACCTAGTGCAG” was run?
Answer: The binding signal was 8720 fluorescence intensity (a.u.).

Question: With “CAGCCGTATTTCTACTAGTCCAGTCTTTTTCAGCAATAAACGGAGTCACCTAGTGCAG” as the sequence, how does the binding signal read?
Answer: Its binding signal is 8160 fluorescence intensity (a.u.).

Question: How did the binding signal turn out when “TTTCCACCACCACCACCACCGATCTCGCCGCTGTCCAACGCGGAGTCACCTAGTGCAG” was run?
Answer: Its binding signal is 8460 fluorescence intensity (a.u.).

Question: For “TGATTATTGTATGCAAACCTATTCTGTCATCTGGTGAGATCGGAGTCACCTAGTGCAG”, which binding signal is on record?
Answer: Its binding signal is 8530 fluorescence intensity (a.u.).

Question: How did the binding signal turn out when “TTTACGTTTGCCTGCATCTTTCTGACCTGTATACTAATTTCGGAGTCACCTAGTGCAG” was run?
Answer: Its binding signal is 13300 fluorescence intensity (a.u.).

Question: Which binding signal does the source give for “ATCCAACATTCCCACTATCAGATTCGATCATTTACTGTTGCGGAGTCACCTAGTGCAG” here?
Answer: Its binding signal is 8480 fluorescence intensity (a.u.).

Question: Which binding signal does the source give for “TTCCCCTTCGCCAACTCAGCATAACCTTCTACCTCAACTACGGAGTCACCTAGTGCAG” here?
Answer: Its binding signal is 8270 fluorescence intensity (a.u.).

Question: For “CACCGTCCACAGTCTCGTTCCCGCTCCACGCGCGCGCCGCCGGAGTCACCTAGTGCAG”, which binding signal is on record?
Answer: The binding signal was 9480 fluorescence intensity (a.u.).

Question: How did the binding signal turn out when “CATTGACATCTTATTTGGTTGTTTGCCGATCATATGCTCTCGGAGTCACCTAGTGCAG” was run?
Answer: The binding signal was 9170 fluorescence intensity (a.u.).
